Test [1] deals with GFP-ORF50(1–490) (Kaposi's sarcoma-associated herpesvirus (KSHV)) (UniProt F5HCV3). Briefly: co-IP.
Test [2] deals with GFP-ORF50(1–590) (Kaposi's sarcoma-associated herpesvirus (KSHV)) (UniProt F5HCV3). Briefly: co-IP.
The target of test [3] is FLAG-tagged RBP-Jκ (F-RBP-Jκ) (UniProt Q06330). Briefly: native gel or EMSA.
Test [4] concerns the target untagged Sp3 (UniProt Q02447). Briefly: native gel or EMSA.
Test [5] concerns the target Sp3 (human (endogenous in 293T)) (UniProt Q02447). Briefly: native gel or EMSA.

Chains of the proteins cited; added tags and fusions are not shown. Lines headed by an entry give the natural chain unless they say otherwise; changes in a name come on top. Residues count along the entry.
UniProt F5HCV3: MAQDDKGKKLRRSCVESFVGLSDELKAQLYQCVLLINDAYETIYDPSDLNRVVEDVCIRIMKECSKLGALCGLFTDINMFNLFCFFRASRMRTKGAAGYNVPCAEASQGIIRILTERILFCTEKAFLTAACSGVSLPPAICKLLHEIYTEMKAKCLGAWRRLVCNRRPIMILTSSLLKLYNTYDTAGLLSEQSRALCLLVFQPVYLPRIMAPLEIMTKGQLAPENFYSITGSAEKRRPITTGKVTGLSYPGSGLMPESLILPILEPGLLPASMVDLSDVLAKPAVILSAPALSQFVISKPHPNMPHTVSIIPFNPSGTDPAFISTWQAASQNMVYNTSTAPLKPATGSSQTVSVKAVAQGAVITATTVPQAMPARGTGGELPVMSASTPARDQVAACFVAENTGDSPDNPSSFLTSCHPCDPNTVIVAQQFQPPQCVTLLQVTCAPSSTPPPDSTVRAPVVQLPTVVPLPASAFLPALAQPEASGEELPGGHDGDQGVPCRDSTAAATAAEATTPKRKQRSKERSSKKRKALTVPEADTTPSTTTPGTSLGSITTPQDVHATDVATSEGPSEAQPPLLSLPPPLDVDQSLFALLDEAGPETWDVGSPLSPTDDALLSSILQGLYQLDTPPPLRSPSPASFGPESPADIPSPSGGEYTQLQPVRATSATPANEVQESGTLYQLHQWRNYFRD
GFP-ORF50(1–590) (Kaposi's sarcoma-associated herpesvirus (KSHV)): residues 1-590 of F5HCV3
GFP-ORF50(1–490) (Kaposi's sarcoma-associated herpesvirus (KSHV)): residues 1-490 of F5HCV3
UniProt Q06330: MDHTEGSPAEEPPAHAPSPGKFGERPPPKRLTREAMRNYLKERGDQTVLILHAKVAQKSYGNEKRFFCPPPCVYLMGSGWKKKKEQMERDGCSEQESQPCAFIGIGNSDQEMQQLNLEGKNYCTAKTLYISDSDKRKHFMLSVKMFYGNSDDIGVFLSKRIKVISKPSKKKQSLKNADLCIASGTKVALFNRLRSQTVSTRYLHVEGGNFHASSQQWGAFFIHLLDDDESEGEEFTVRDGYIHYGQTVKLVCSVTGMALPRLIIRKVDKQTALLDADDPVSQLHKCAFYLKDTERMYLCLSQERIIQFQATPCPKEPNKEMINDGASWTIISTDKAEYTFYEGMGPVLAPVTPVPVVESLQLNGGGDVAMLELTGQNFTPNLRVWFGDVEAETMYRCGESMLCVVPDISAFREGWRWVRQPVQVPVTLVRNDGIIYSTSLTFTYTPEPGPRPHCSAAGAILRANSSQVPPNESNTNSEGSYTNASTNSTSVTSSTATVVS
UniProt Q02447: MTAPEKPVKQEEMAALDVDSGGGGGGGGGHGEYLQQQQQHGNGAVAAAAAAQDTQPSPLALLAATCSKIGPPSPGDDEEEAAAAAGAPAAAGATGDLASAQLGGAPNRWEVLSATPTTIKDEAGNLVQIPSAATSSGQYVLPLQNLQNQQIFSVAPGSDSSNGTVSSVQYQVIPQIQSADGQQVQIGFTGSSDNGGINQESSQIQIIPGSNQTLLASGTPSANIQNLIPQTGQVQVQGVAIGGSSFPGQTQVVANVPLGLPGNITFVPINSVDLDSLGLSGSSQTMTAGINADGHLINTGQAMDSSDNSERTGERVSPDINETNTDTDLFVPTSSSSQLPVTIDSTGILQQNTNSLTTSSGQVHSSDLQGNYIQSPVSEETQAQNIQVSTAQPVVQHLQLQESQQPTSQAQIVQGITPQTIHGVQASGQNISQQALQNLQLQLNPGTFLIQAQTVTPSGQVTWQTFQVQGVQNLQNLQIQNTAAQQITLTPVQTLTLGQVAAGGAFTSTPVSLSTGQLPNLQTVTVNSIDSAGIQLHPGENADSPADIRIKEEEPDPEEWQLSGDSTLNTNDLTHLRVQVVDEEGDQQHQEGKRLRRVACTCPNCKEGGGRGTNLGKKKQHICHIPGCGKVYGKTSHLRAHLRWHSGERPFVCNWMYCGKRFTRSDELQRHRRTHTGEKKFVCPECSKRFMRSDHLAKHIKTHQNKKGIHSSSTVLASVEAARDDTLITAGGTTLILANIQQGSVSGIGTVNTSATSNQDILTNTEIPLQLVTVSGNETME

These are yes or no findings as the source states them, for the method shown. For some of these results: In cells and extracts the contact can be indirect. Some binding calls cover weakened binding; strength is not graded here.

Turning to RBP-Jκ (from UniProt Q06330 1-500), the binding result in test [1] and in test [2] was “binds” throughout.
On to “F-ORF50(1–490) (from UniProt F5HCV3 1-490) (domain or fragment)”, for which the binding entry in test [3], in test [4] and in test [5] was “binds” each time.
Sp3 (from UniProt Q02447 1-781): the binding entry in test [1] and in test [2] was “binds” in each case.

For the origin of these results see publication PMC7459565.
